These results are taken from article PMC11624273.

Amino acid sequences for entries named in this document (tags omitted). A change or cut given only in a name is not applied to a line headed by its entry.
UniProt Q9GZV5: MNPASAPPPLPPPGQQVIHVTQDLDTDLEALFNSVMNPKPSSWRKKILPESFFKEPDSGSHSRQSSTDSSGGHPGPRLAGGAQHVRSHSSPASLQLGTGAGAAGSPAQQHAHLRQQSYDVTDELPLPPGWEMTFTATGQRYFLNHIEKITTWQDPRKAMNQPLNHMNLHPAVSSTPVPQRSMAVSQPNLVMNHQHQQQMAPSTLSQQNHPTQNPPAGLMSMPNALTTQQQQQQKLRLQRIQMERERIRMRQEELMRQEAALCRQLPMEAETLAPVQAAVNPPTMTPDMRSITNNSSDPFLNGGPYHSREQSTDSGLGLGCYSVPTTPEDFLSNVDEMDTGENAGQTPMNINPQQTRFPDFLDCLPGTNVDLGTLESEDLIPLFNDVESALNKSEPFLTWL
UniProt P25490: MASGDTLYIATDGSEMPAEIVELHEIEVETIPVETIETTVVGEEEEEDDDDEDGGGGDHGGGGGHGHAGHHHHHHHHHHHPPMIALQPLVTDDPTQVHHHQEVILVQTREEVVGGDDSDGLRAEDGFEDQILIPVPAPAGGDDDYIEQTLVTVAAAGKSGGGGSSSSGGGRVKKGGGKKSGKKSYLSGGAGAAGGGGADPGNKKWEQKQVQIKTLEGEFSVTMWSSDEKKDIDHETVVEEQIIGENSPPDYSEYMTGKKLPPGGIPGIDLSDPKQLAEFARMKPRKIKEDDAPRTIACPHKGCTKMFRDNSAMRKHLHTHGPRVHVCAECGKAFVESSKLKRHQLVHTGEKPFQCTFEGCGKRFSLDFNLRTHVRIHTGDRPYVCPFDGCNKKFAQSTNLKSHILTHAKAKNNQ

Common to all, as to test: co-IP; lysates of transfected 293T cells incubated with anti-FLAG M2 magnetic beads or anti-V5 agarose beads at 4 °C for 4 h or overnight; washed three times with NP-40 lysis buffer (50 mM Tris-HCl pH 8.0, 150 mM NaCl, 1% NP-40, 0.5 mM DTT) and once with PBS; Western blot with anti-HA, anti-V5 or …
(In general: A western blot detects proteins with antibodies after separation by electrophoresis.)

The target of one assay is V5-TAZ (human) (UniProt Q9GZV5).
Assay [1] has as its target V5-tagged MPP7 WT (pCDNA3-V5-Mpp7, human cDNA) (human) (UniProt Q5T2T1).
In assay [2] the target is FLAG-MPP7 (pCDNA3-Flag-Mpp7) (human) (UniProt Q5T2T1).

These are yes or no findings as the source states them, for the method shown. In cells and extracts the contact can be indirect. Some results given as binding are weak or reduced against the parent protein; the word gives no strength. For part of these data: Where a sequence is shown, tags or fusion partners need not be part of it.

Take “HA-YY1 (human cDNA) (from UniProt P25490 1-414)”: the binding entry with V5-TAZ (human) is recorded as “binds”.

Turning to “HA-tagged AMOT WT (HA-Amot p130, human cDNA) (from UniProt Q4VCS5-1 1-1084)”, in assay [1], the binding result is on record as “binds”.

As for “TAZ WWm (W152A, P155A) (from UniProt Q9GZV5 1-400)”, the binding entry in assay [2] was “no binding”.
